Source: the supplement of paper PMC10849652
Some of the results follow.

Sequences of proteins named here, by UniProt entry; tags and fusion partners are left off. A change or cut given only in a name is not applied to a line headed by its entry.
UniProt Q9NQT8: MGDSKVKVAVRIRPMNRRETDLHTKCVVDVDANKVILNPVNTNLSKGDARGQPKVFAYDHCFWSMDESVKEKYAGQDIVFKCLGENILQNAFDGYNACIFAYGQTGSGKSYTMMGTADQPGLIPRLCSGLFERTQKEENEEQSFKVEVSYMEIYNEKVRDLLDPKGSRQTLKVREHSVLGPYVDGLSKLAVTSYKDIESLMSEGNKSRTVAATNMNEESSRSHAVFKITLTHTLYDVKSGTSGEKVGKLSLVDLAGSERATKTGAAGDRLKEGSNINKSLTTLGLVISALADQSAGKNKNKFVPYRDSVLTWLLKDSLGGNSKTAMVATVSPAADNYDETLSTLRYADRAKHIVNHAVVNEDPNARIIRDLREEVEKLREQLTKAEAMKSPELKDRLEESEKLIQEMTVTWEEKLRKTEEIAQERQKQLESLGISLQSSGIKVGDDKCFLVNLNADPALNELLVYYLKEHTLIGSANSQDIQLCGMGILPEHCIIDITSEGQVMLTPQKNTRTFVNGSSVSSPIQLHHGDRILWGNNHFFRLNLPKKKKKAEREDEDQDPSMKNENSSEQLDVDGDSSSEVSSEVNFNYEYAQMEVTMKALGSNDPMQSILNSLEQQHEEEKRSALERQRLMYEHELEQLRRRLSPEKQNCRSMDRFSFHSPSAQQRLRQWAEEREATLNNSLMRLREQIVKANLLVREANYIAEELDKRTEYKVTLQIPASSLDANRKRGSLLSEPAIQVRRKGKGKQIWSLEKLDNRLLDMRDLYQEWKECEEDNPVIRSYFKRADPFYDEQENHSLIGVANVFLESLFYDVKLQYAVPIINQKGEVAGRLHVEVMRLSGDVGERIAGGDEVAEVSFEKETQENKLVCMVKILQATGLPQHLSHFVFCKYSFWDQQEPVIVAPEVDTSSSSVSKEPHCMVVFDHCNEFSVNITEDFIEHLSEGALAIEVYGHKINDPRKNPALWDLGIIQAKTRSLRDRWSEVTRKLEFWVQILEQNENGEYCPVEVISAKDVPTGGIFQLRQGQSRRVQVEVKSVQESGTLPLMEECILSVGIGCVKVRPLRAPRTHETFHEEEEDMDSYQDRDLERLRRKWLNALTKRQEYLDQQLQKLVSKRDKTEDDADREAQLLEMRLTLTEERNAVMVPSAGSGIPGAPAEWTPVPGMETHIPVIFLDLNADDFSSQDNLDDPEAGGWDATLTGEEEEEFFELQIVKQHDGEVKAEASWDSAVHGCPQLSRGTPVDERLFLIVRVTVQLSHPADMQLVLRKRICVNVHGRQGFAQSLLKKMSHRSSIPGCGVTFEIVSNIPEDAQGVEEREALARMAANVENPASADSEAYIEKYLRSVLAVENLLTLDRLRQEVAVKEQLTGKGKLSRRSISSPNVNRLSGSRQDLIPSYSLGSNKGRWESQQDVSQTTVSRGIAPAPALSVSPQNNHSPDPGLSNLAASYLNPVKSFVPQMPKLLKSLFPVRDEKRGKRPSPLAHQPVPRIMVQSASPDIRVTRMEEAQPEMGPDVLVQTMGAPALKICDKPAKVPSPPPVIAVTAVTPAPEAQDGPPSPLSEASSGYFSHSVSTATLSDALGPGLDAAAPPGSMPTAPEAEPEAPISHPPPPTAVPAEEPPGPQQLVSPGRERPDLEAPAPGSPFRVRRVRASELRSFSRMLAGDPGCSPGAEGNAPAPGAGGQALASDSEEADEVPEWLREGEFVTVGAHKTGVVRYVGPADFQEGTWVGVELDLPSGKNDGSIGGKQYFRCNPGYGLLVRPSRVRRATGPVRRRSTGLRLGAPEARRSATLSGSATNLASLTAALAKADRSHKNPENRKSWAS
UniProt O60333: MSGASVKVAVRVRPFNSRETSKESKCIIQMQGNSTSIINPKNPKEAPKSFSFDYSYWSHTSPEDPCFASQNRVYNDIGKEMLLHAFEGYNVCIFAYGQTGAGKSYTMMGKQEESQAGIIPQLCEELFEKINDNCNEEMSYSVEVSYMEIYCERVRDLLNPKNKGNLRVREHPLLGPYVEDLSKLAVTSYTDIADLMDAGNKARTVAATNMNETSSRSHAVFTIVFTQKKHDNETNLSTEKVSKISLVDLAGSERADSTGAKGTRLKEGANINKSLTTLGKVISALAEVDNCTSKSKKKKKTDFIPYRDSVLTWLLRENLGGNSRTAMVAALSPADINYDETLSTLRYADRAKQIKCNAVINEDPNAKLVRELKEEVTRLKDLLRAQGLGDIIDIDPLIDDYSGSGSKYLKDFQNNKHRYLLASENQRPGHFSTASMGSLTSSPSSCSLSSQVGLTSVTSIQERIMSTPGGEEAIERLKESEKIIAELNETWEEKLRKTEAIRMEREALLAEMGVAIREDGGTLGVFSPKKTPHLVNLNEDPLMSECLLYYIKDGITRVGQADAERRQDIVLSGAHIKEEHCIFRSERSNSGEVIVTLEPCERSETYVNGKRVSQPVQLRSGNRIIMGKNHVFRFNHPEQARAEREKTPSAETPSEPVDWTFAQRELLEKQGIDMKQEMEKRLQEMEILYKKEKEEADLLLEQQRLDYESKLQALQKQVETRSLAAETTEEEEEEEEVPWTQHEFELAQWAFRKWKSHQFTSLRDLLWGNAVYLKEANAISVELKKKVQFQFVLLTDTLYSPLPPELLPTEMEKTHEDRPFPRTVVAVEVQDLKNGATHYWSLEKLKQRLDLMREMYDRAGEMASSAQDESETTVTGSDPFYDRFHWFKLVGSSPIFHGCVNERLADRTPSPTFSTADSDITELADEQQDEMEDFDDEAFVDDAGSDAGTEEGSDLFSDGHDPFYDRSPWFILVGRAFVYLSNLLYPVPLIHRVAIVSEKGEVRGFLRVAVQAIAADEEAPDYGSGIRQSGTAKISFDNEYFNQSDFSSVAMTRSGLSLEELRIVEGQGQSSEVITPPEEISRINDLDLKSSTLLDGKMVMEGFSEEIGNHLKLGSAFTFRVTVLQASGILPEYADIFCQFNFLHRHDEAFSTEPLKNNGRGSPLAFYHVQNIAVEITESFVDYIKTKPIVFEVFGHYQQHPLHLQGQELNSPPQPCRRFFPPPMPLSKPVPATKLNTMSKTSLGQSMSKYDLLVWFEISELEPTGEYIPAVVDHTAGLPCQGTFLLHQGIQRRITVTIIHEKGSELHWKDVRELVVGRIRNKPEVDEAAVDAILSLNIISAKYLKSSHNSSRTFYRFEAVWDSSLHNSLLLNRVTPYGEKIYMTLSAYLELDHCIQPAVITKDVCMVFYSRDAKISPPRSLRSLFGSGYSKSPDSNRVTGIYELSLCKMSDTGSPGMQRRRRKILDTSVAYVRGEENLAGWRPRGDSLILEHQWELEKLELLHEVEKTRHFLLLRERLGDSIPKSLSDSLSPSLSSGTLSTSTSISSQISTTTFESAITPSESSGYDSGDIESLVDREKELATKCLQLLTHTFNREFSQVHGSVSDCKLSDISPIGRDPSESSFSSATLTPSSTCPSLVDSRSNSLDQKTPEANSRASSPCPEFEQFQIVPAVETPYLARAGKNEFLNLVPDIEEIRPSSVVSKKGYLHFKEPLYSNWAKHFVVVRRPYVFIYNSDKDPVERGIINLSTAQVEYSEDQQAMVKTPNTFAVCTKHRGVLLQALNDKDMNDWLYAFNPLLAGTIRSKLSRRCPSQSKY
UniProt Q15058: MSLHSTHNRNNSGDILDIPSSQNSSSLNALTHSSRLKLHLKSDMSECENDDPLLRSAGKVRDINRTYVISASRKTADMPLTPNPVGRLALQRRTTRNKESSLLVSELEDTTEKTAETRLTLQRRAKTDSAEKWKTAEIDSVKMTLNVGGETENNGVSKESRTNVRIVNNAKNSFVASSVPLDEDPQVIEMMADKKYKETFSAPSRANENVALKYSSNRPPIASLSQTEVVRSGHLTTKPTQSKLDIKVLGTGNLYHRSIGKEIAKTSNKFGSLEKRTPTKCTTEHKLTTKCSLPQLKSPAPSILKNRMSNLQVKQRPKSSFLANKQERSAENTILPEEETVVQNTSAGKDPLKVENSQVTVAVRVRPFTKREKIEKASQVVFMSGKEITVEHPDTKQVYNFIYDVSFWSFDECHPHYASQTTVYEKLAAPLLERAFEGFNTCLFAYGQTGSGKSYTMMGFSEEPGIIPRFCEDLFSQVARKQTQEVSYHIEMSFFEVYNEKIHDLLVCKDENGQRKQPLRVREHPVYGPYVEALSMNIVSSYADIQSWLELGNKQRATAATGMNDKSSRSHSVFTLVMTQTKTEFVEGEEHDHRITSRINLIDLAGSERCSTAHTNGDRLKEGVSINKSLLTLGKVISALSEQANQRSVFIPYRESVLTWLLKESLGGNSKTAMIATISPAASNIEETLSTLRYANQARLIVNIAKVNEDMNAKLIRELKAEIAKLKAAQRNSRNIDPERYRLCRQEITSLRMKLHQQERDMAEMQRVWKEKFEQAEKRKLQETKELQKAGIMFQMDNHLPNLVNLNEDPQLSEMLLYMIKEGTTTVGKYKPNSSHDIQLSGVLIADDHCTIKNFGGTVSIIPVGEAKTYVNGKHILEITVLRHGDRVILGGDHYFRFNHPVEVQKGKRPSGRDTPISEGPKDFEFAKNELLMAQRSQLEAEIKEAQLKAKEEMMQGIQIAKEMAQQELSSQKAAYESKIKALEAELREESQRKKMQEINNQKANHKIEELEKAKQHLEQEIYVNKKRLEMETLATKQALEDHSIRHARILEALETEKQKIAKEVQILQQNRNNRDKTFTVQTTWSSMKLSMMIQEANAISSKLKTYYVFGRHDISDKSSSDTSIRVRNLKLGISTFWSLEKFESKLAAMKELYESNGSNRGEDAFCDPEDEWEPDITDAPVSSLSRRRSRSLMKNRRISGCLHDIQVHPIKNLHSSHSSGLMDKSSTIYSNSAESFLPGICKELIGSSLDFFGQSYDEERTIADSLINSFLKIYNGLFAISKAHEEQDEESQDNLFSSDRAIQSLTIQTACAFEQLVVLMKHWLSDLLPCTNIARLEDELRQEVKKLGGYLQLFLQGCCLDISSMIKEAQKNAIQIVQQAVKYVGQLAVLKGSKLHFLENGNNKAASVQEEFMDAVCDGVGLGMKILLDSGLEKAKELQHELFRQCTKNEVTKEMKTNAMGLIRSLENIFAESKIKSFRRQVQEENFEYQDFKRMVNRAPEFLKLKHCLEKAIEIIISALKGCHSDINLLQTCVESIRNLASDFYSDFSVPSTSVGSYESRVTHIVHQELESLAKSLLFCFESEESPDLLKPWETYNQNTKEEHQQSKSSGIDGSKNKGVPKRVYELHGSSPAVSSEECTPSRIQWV
UniProt Q9Y448: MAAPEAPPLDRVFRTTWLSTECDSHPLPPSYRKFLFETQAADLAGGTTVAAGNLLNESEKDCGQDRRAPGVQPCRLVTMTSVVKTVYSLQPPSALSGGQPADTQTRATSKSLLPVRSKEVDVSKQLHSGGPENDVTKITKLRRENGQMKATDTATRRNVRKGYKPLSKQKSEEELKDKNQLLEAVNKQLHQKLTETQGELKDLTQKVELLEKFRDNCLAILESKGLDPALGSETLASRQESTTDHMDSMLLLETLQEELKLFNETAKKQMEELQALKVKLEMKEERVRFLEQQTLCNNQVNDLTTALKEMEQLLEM

Legend:
Assay in all cases: log2 fold change, soluble protein after heating vs DMSO (PISA); higher = thermal stabilisation; K562 lysate, 10 uM; active = over 0.2 and 3.5 SD of the protein, either way, in both replicates (recomputed)
[1] = compound: CCCS(=O)(=O)Nc1ccc(F)c(C(=O)c2c[nH]c3ncc(-c4ccc(Cl)cc4)cc23)c1F [vemurafenib]
Summary of the method: (§1)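 Pellets of K562 cells were dounce-homogenised in PBS pH 7.4 with 1 mM MgCl2, and the crude extract was held at 1 mg/mL protein for a 30 min treatment with 10 μM compound. Aliquots were heated for 3 min over 48°C-58°C and pooled before NP-40 was added to 0.5% at 4°C. The supernatant from 21,000xg for 90 min was quantified by TMTpro 16plex LC-MS/MS with channel sums equalised. Values are reported from duplicates as log-two fold change in thermal stability relative to solvent controls.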

[2] = compound: CCCS(=O)(=O)Nc1ccc(F)c(C(=O)c2c[nH]c3ncc(Cl)cc23)c1F
Summary of the method: as §1

[3] = compound: CCN(CCCOc1ccc2c(Nc3cc(CC(=O)Nc4cccc(F)c4)[nH]n3)ncnc2c1)CCOP(=O)(O)O [barasertib]
Summary of the method: as §1

[4] = compound: CC[C@@H]1C(=O)N(C)c2cnc(Nc3ccc(C(=O)NC4CCN(C)CC4)cc3OC)nc2N1C1CCCC1
Summary of the method: as §1

[5] = compound: CC[C@@H]1C(=O)N(C)c2cnc(Nc3ccc(C(=O)N[C@H]4CC[C@H](N5CCN(CC6CC6)CC5)CC4)cc3OC)nc2N1C(C)C [volasertib]
Summary of the method: as §1

[6] = compound: CCn1c(C(=O)N(C2CC2)C2CC2)cc2c3c(ncn3C)c(Nc3cc(C)n(C)n3)nc21
Summary of the method: as §1

[7] = compound: CCn1cc(-c2ccnc3[nH]c(-c4cccc(CN(C)C)c4)cc23)c(-c2ccc(NC(=O)N(C)C)cc2)n1
Summary of the method: as §1

[8] = compound: CN1CCC(CNc2ccc3ncc(-c4cccc(OC(F)(F)F)c4)n3n2)CC1
Summary of the method: as §1

[9] = compound: CN1CCN(CCOc2cc(OC3CCOCC3)c3c(Nc4c(Cl)ccc5c4OCO5)ncnc3c2)CC1 [saracatinib]
Summary of the method: as §1

[10] = compound: CN1CCN(c2nc(C3=C(c4c[nH]c5ccccc45)C(=O)NC3=O)c3ccccc3n2)CC1 [sotrastaurin]
Summary of the method: as §1

[11] = compound: CN1CC[C@H](c2c(O)cc(O)c3c(=O)cc(-c4ccccc4Cl)oc23)[C@H](O)C1 [alvocidib]
Summary of the method: as §1

[12] = compound: CN1CCc2c(c3ccccc3n2Cc2ccc(C(=O)NO)cc2)C1 [Tubastatin A]
Summary of the method: as §1

[13] = compound: CNC(=O)C1=CC=CC=C1NC2=NC(=NC=C2Cl)NC3=C(C=C(C=C3)N4CCOCC4)OC
Summary of the method: as §1

[14] = compound: CNC(=O)c1ccc(Nc2ncc(C(F)(F)F)c(NCc3nccnc3N(C)S(C)(=O)=O)n2)cc1 [defactinib]
Summary of the method: as §1

[15] = compound: CNc1nc(-c2ccc3c(N)n[nH]c3c2)cc(N2C[C@@H](C(=O)NC3CCCCC3)CC[C@H]2C)n1
Summary of the method: as §1

[16] = compound: COC(=O)N[C@@H](C)CNc1nccc(-c2cn(C(C)C)nc2-c2cc(Cl)cc(NS(C)(=O)=O)c2F)n1 [encorafenib]
Summary of the method: as §1

[17] = compound: COC(=O)[C@H](CCSC)NC(=O)C1=C(C=C(C=C1)NC[C@H](CS)N)C2=CC=CC=C2
Summary of the method: as §1

[18] = compound: COc1cc(Nc2ncc3c(n2)-c2ccc(Cl)cc2C(c2c(F)cccc2OC)=NC3)ccc1C(=O)O [alisertib]
Summary of the method: as §1

[19] = compound: COc1cc2nc(-c3cc(F)ccc3O)nc(N[C@@H]3CNC[C@H]3C(C)(C)O)c2cc1OC
Summary of the method: as §1

[20] = compound: COc1cc2ncnc(Nc3ccc(F)c(Cl)c3)c2cc1OCCCN1CCOCC1 [gefitinib]
Summary of the method: as §1

Measured: log2 fold change

KIF13B (UniProt Q9NQT8)
inactive: [1] 0.025 | [2] 0.009 | [3] 0.028 | [4] -0.025 | [5] -0.06 | [6] 0.03 | [7] 0.007 | [8] -0.013 | [9] 0.005 | [10] -0.011 | [11] 0 | [12] -0.047 | [13] -0.013 | [14] 0 | [15] 0.016 | [16] 0.039 | [17] 0.122 | [18] 0.023 | [19] 0.061 | [20] 0.006

KPNA6 (UniProt O60684)
inactive: [1] -0.184 | [2] 0.019 | [3] 0.007 | [4] -0.063 | [5] -0.04 | [6] 0.024 | [7] -0.012 | [8] -0.095 | [9] 0.006 | [10] 0.017 | [11] 0.034 | [12] -0.089 | [13] 0.047 | [14] -0.032 | [15] 0.026 | [16] 0.019 | [17] 0.07 | [18] 0.005 | [19] 0.003 | [20] 0.003

KIF1B isoform 2 (UniProt O60333)
inactive: [1] 0.006 | [2] 0.004 | [3] 0.048 | [4] 0.014 | [5] -0.059 | [6] -0.008 | [7] -0.024 | [8] -0.026 | [9] 0.007 | [10] 0.006 | [11] 0.005 | [12] -0.034 | [13] 0.025 | [14] 0 | [15] 0.035 | [16] 0.003 | [17] 0.087 | [18] 0.018 | [19] -0.047 | [20] -0.021

KPNA2 (UniProt P52292)
inactive: [1] 0.001 | [2] 0 | [3] 0.05 | [4] -0.037 | [5] -0.051 | [6] 0.004 | [7] -0.033 | [8] -0.041 | [9] 0.005 | [10] 0.038 | [11] 0.018 | [12] -0.083 | [13] -0.012 | [14] 0.012 | [15] -0.013 | [16] -0.005 | [17] 0.122 | [18] 0.008 | [19] -0.017 | [20] 0.003

KIAA0100 (UniProt Q14667)
inactive: [1] -0.022 | [2] 0.033 | [3] 0.025 | [4] 0 | [5] -0.001 | [6] -0.081 | [7] 0.063 | [8] 0.02 | [9] 0.037 | [10] 0.204 | [11] -0.033 | [12] 0.003 | [13] -0.01 | [14] -0.015 | [15] 0.328 | [16] 0.053 | [17] -0.107 | [18] 0.035 | [19] -0.007 | [20] -0.006

KIF14 (UniProt Q15058)
inactive: [1] 0.027 | [2] 0.021 | [3] 0.143 | [4] 0.052 | [5] -0.071 | [6] -0.005 | [7] -0.046 | [8] 0.05 | [9] 0.016 | [10] 0.01 | [11] -0.031 | [12] -0.217 | [13] 0.032 | [14] 0.043 | [15] 0.011 | [16] 0.038 | [17] 0.045 | [18] -0.028 | [19] 0.013 | [20] 0.001

KIAA0930 isoform 2 (UniProt Q6ICG6)
inactive: [1] -0.118 | [2] -0.009 | [3] 0.002 | [4] 0.162 | [5] 0.14 | [6] 0.159 | [7] -0.078 | [8] 0.028 | [9] 0.098 | [10] 0.075 | [11] -0.067 | [12] 0.077 | [14] 0.03 | [15] -0.118 | [16] -0.089 | [17] -0.032 | [18] 0.073 | [19] 0.013 | [20] -0.063

KNSTRN (UniProt Q9Y448)
active: [17] -0.264
inactive: [1] -0.012 | [2] 0.021 | [3] 0.022 | [4] 0.01 | [5] 0.004 | [6] 0.086 | [7] 0.063 | [8] -0.095 | [9] 0.009 | [10] -0.03 | [11] 0.001 | [12] -0.062 | [13] 0.038 | [14] -0.029 | [15] 0.053 | [16] 0.074 | [18] 0.043 | [19] -0.016 | [20] -0.022
